# Laboratory results taken from PubChem BioAssay AID540303 (National Center for Advancing Translational Sciences (NCATS), 2011).
# The whole screen tested about 330,000 compounds, of which about 1,000 (0.3%) were called active. This list was built around the results that the source calls inconclusive (neither active nor inactive); the mix of calls is not that of the screen. The call rests on the fitted dose curve; in most records, active means well fitted inhibition curve with a large enough effect; inconclusive means small, poorly fitted or top-dose-only effect; inactive means no such curve, though single readings can be large or run the other way; tested in mouse RAW 264.7 cells. A potency beside an inconclusive call is a rough fit, not a confirmed value.
# Assay: qHTS for Inhibitors of Cell Surface uPA Generation; further: nearly all actives have a fitted effect of over 55% in size
# Settings: cell surface uPA generation assay; series mostly up to 38.3 µM
# In short: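 ATP-Lite luminescence in RAW 264.7 cells after 24 h of exposure to compound, tested up to 38.3 uM final in 1:5 steps. Raised ATP reflects inhibition of uPA-dependent LF delivery to the cytoplasm.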
# Potency means the concentration at half of the fitted maximal effect.
row,SMILES,Potency
1,CC(C)CCCN1C(Nc2ccccc2)=NC[C@@H]1CC(C)C,"inconclusive: 12.6 µM [inhibitor, partial curve, poor fit]"
2,CCCCn1c(N)c(N(CCOC)C(=O)c2cc(-c3ccc(OC)cc3)nc3ccccc23)c(=O)[nH]c1=O,"inconclusive: 11.2 µM [inhibitor, partial curve, poor fit]"
3,CCOc1ccc(OCCC(=O)OCC(=O)Nc2ccc(C)c(S(=O)(=O)N3CCCCC3)c2)cc1,inactive
4,O=C(C[C@H]1C[C@H](C(=O)N2CCOCC2)[C@@]2(CCC3CCCC3)c3[nH]c4cc(-c5ccco5)ccc4c3CCN2C1=O)NCCCn1ccnc1,"inconclusive: 28.2 µM [inhibitor, single point]"
5,Cc1ccc(Nc2nnc(SCC(=O)Nc3cccnc3Cl)s2)cc1C,"inconclusive: 14.1 µM [inhibitor, partial curve, poor fit]"
6,CC(C)[C@H](NC(=O)c1ccc(Cl)cc1)C(=O)OCC(=O)N1CCN(c2ccccc2)CC1,"inconclusive: 3.55 µM [inhibitor, partial curve, poor fit]"
7,COc1ccc(NC(=S)N/N=C/c2ccc(F)c(F)c2)cc1,inactive
8,CCOCCCNC(=S)NCCCNc1nc2c(C)cc(C)cc2cc1C#N,inactive
9,CN(Cc1ccccc1)C(=O)c1ccc(S(=O)(=O)N(C)c2ccccc2)cc1,"inconclusive: 8.91 µM [inhibitor, single point]"
10,CN(c1ccccc1)S(=O)(=O)c1ccc(C(=O)N2CCN(c3ccccc3Cl)CC2)cc1,"inconclusive: 12.6 µM [inhibitor, single point]"
11,COc1ccc2nc(NC(=O)c3sc4nc(C)cc(C)c4c3N)sc2c1,"inconclusive: 0.447 µM [inhibitor, full curve, poor fit]"
12,CCN1CCN(/C=N/c2nc3c(s2)CCCC3)CC1,"inconclusive: 6.31 µM [inhibitor, partial curve, poor fit]"
13,CC(Oc1ccc2ccccc2c1)C(=O)NNC(=O)Nc1ccccc1 (centres undefined),"inconclusive: 1.26 µM [inhibitor, partial curve, poor fit]"
14,COc1ccc(NC(=S)N(CCCN2CCC(C)CC2)Cc2cccs2)cc1Cl,inactive
15,O=C(NC(=S)N1CCOCC1)c1cn(-c2ccccc2)nc1-c1ccccc1,"inconclusive: 31.6 µM [inhibitor, single point]"
16,O=C(NCCc1cccs1)c1ccc(Cl)c(Cl)c1,inactive
17,CCCCn1c(CN2CCN(c3cccc(Cl)c3)CC2)nc2c1c(=O)[nH]c(=O)n2C,"inconclusive: 2.24 µM [inhibitor, full curve, poor fit]"
18,CCN(CC)S(=O)(=O)c1ccc(N2CCOCC2)c(NC(=O)c2cc3ccccc3oc2=O)c1,"inconclusive: 1.12 µM [inhibitor, full curve, poor fit]"
19,O=C(COC(=O)c1cc(S(=O)(=O)N2CCOCC2)ccc1F)NCCc1ccc(F)cc1,"inconclusive: 5.62 µM [inhibitor, partial curve, poor fit]"
20,Cc1ccc(S(=O)(=O)N2C[C@@H]3CCCC[C@@H]3[C@@H](C)[C@H]2c2cn(Cc3ccccc3)c3ncccc23)cc1,active: 10 µM
21,CN(C(=O)c1cccc(Cl)c1)C1CCCN(Cc2ccccc2F)C1 (centres undefined),"inconclusive: 0.0112 µM [inhibitor, partial curve, poor fit]"
22,Cc1ccc(S(=O)(=O)N(C)c2ccc3sc(C)nc3c2)cc1,"inconclusive: 28.2 µM [inhibitor, single point]"
23,COc1ccc(N2CCN(S(=O)(=O)c3cc(-c4cc(C)no4)ccc3C(C)C)CC2)cc1,"inconclusive: 1.26 µM [inhibitor, single point]"

row,SMILES,Potency
1,O=C(N/N=C/c1cccs1)c1cc(C2CC2)nc2ccccc12,inactive
2,CCN(CC)C(=O)Cn1cc(S(=O)(=O)CC(=O)Nc2cc(C)on2)c2ccccc21,inactive
3,CC(Nc1cc(C)cc(C)c1)=[N+](C)CCNS(=O)(=O)c1ccc(Cl)cc1,inactive
4,COc1ccc(OC)c2c1C(=O)C(Cl)=C(Cl)C2=O,"inconclusive: 3.98 µM [inhibitor, full curve, poor fit]"
5,Cc1nc2sc(C(c3ccco3)N3CCN(c4ccccc4)CC3)c(O)n2n1 (centres undefined),inactive
6,COCc1cc(C)nc2sc(C(=O)Nc3ccccc3C)c(N)c12,inactive
7,CCOc1ccc(-c2ccc(SCc3ccccn3)nn2)cc1,inactive
8,Cc1cccc(NC(=O)c2nc[nH]c2C(=O)N[C@@H](Cc2ccccc2)C(=O)OC(C)(C)C)c1,"inconclusive: 28.2 µM [inhibitor, single point]"
9,COc1ccc(C(=O)Nc2ccc(C3(C#N)CCCC3)cc2)cc1OC,"inconclusive: 8.91 µM [inhibitor, single point]"
10,CCC(=O)N(C1=C(NC)C(=O)c2ccccc2C1=O)C(C)C,"inconclusive: 8.91 µM [inhibitor, partial curve]"
11,CC(=O)N1CCN(c2ccc(N)cc2)CC1,"inconclusive: 10 µM [inhibitor, partial curve, poor fit]"
12,CN(CC(=O)Nc1ccc(Cl)c(C(F)(F)F)c1)C(=O)CCCNC(=O)c1ccc(Cl)cc1,active: 8.91 µM
13,O=C(Nc1ccc(O)cc1)/C(=C\c1cccs1)NC(=O)c1ccccc1,"inconclusive: 2.82 µM [inhibitor, full curve, poor fit]"
14,O=C(O)C1C2C=CC(C2)C1C(=O)NCc1ccc2c(c1)OCO2 (centres undefined),"inconclusive: 3.16 µM [inhibitor, single point]"
15,Cc1nc(C2CCCCC2)c(-c2ccccc2)c(N2CCOC2=O)c1C,"inconclusive: 0.891 µM [inhibitor, partial curve, poor fit]"
16,CC(=O)OCC(=O)[C@@]12OC3(CCCC3)O[C@@H]1C[C@H]1[C@@H]3CCC4=CC(=O)C=C[C@]4(C)[C@@]3(F)[C@@H](O)C[C@@]12C,"inconclusive: 2.82 µM [inhibitor, full curve, poor fit]"
17,COc1ccc(/C=N/n2cc(-c3ccccc3)nc2N)cc1,inactive
18,Cc1ccc2nc(NC(=O)c3cccc(-c4cc5ccccc5oc4=O)c3)sc2c1,inactive
19,COc1ccc(SCCN2CCN(CC(C)C)CCC2=O)cc1,"inconclusive: 12.6 µM [inhibitor, single point]"
20,CC1Cc2ccccc2N1C(=O)CSc1nnc(-c2ccccc2)c(-c2ccccc2)n1 (centres undefined),inactive
21,CC(C)(C)OC(=O)NCCCC[C@H](NC(=O)c1[nH]cnc1C(=O)N[C@@H](Cc1ccccc1)C(=O)OC(C)(C)C)C(=O)OC(C)(C)C,"inconclusive: 28.2 µM [inhibitor, single point]"
22,COC(=O)c1cc(S(=O)(=O)C(C)C)c(S(C)=O)s1 (centres undefined),inactive
23,COc1cc(-c2c(-c3cc(OC)c(OC)c(OC)c3)noc2C)ccc1F,"inconclusive: 0.355 µM [inhibitor, full curve, poor fit]"

# 2 of the compounds above, with tabs:
row	SMILES	Potency
12	CN(CC(=O)Nc1ccc(Cl)c(C(F)(F)F)c1)C(=O)CCCNC(=O)c1ccc(Cl)cc1	active: 8.91 µM
13	O=C(Nc1ccc(O)cc1)/C(=C\c1cccs1)NC(=O)c1ccccc1	inconclusive: 2.82 µM [inhibitor, full curve, poor fit]

# (further entries)

row,SMILES,Potency
1,O=S(=O)(c1ccc2ccccc2c1)N1CCN(C(=S)Nc2ccccc2F)CC1,inactive
2,CC(=O)OC1CCC2(C)C(CCC3C2CC(=NO)C2(C)C(C(C)OC(C)=O)CCC32)C1 (centres undefined),inactive
3,O=C(Nc1cccc(O)c1)c1noc2c1CCc1ccccc1-2,"inconclusive: 2.24 µM [inhibitor, partial curve]"
4,O=c1c(Cl)c(Cl)cnn1-c1ccccc1,active: 3.55 µM
5,CCOc1ccc(CNC(=O)c2nnc(CS(=O)(=O)c3ccccc3)o2)cc1OC,"inconclusive: 12.6 µM [inhibitor, single point]"
6,CCCC(C)NC(=O)C1c2ccccc2Oc2ccccc21 (centres undefined),"inconclusive: 2.51 µM [inhibitor, partial curve, poor fit]"
7,Cc1nnc(N2C(=O)c3cccc4c([N+](=O)[O-])ccc(c34)C2=O)s1,active: 10 µM
8,COc1ccc(-c2nn(-c3ccccc3)cc2/C=N/Nc2ccc(S(N)(=O)=O)cc2[N+](=O)[O-])cc1OC,inactive
9,COc1ccc(NC(=O)Nc2cc(C)ccn2)cc1,"inconclusive: 4.47 µM [inhibitor, partial curve]"
10,CC(=O)Nc1ccc(Nc2nc(C)c([N+](=O)[O-])c(Nc3ccccc3)n2)cc1,inactive
11,COC(=O)c1ccc(CSc2nnc(-c3ccccc3)n2C)o1,"inconclusive: 5.62 µM [inhibitor, partial curve, poor fit]"
12,NC(=O)c1cc(NC(=O)c2cc(Br)c(Br)s2)cc(C(N)=O)c1,inactive
13,CC(=O)c1ccccc1N(C(=O)Cn1nnc2ccccc21)C(C(=O)NCC1CCCO1)c1ccc(N2CCOCC2)cc1 (centres undefined),inactive
14,O=C(Nc1nnc2n1CCS2)c1ccco1,inactive
15,Cc1ccc(NC(=S)N(Cc2ccco2)C(C)c2cccs2)c(Cl)c1 (centres undefined),inactive
16,O=C(NC12CC3CC(CC(C3)C1)C2)N1CCC(O)(c2ccc3c(c2)OCO3)CC1,"inconclusive: 10 µM [inhibitor, partial curve, poor fit]"
17,COc1cc(N=C2C(=O)N3c4c(cccc42)C(C)=CC3(C)C)cc(OC)c1,inactive
18,CCn1cc(SCC(=O)N2CCOCC2)c2ccccc21,inactive
19,O=C(c1cc(Br)ccc1Cl)N1CCN(c2ccccn2)CC1,"inconclusive: 2 µM [inhibitor, full curve, poor fit]"
20,CCC(C)C(=O)Nn1c(C2CC2)nc2cc(OC)c(OC)cc2c1=O (centres undefined),inactive
21,C=CCc1cccc(CNc2cnc3ccccc3c2)c1O,"inconclusive: 12.6 µM [inhibitor, single point]"
22,CCOCC(=O)Nc1ccc([N+](=O)[O-])cc1OC,inactive
23,CC1CCN(C(=O)CCCC(=O)N2CCC(C)CC2)CC1,"inconclusive: 5.01 µM [inhibitor, single point]"
